The exact form of at least one protein or probe is not confirmed. At least one verdict rests on a figure or table, not on a statement of the authors. Protein sequences can lack the tags named with them.
Target: T1, LSF (Late SV40 factor 3) (human) (UniProt Q12800)
T1 sequence (looked up, limits assumed): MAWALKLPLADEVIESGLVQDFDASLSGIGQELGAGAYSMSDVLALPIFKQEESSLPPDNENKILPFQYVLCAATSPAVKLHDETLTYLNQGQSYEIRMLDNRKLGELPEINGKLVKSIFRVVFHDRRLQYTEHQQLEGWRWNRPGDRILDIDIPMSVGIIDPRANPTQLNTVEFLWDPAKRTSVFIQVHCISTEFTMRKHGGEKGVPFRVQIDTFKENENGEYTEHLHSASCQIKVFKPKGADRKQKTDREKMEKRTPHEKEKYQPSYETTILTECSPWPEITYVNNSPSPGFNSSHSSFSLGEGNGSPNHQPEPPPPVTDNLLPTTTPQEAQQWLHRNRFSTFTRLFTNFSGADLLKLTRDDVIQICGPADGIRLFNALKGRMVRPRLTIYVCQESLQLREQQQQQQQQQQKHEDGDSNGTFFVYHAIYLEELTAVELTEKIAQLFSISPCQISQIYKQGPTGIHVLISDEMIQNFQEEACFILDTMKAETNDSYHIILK
Assay: EMSA
Settings: positive control; LightShift Chemiluminescent EMSA kit per manufacturer; 7% PAGE in 0.5x TBE; binding buffer, pH and temperature not stated; protein translated in vitro; protein details: FLAG; label: biotin end label

## CTAGCCATATGGCTGGTTATGGCTGGTCAGA / GATCTCTGACCAGCCATAACCAGCCATATGG [SV40 consensus]
  binding result: binds
